These are yes or no findings as the source states them, for the method shown. In cells and extracts the contact can be indirect. Some results given as binding are weak or reduced against the parent protein; the word gives no strength.
B1: IGBP1, endogenous in αT3-1 cells (protein, UniProt Q61249 1-340)
chain: MAASEDELLLPRLPELFETSKKLLEDVEVATEPTGSRTIQDKVSKGLELLEKAAGMLSQLDLFSRNEDLEEIASTDLKYLMVPALQGALTMKQVNPSKRLDHLQRAREHFVHFLTQCHCYHVAEFQLPQTKTNSAENNTASSSMAYPNLVAMASQRQAKIERYKQKKEVEHRLSALKSAVESGQADDERVREYHLLHLRRWIAVSLEELESIDQEIKILKEKDSPREETACHSSLPEKPPMKPFILTRNKAQAKVFGTGYPSLATMTVSDWYEQHQKYGVLPDRGIAKPASADFQRAAQQQEDQEQKDEESEEKALHRMREWDDWKDTHPRGYGNRQNMG
B2: IGBP1, endogenous in PC3 cells (protein, UniProt P78318 1-339)
chain: MAAEDELQLPRLPELFETGRQLLDEVEVATEPAGSRIVQEKVFKGLDLLEKAAEMLSQLDLFSRNEDLEEIASTDLKYLLVPAFQGALTMKQVNPSKRLDHLQRAREHFINYLTQCHCYHVAEFELPKTMNNSAENHTANSSMAYPSLVAMASQRQAKIQRYKQKKELEHRLSAMKSAVESGQADDERVREYYLLHLQRWIDISLEEIESIDQEIKILRERDSSREASTSNSSRQERPPVKPFILTRNMAQAKVFGAGYPSLPTMTVSDWYEQHRKYGALPDQGIAKAAPEEFRKAAQQQEEQEEKEEEDDEQTLHRAREWDDWKDTHPRGYGNRQNMG

Experiments:
[1] = biological target: HA-PP2Ac (wild type catalytic subunit of protein phosphatase 2A) (human (cDNA from HeLa mRNA)) (UniProt P67775); assay: proximity ligation; Duolink PLA on fixed, permeabilised αT3-1 or PC3 cells transfected with HA-PP2Ac or its mutants; anti-HA together with Ab to the partner; cells untreated or stimulated with TPA (250 nM)
[2] = biological target: HA-PP2Ac (wild type catalytic subunit of protein phosphatase 2A) (human (cDNA from HeLa mRNA)) (UniProt P67775); assay: co-IP; HA-PP2Ac (wild type or mutant) precipitated with anti-HA Ab on Protein A/G beads from extracts of transfected, serum-starved αT3-1 or PC3 cells; cells untreated or stimulated with TPA (250 nM), GnRH-a or PGF2α, with or without PKC inhibitor GFx (3 µM, 20 min); partners detected by Western blotting
[3] = biological target: HA-PP2Ac (wild type catalytic subunit of protein phosphatase 2A) (human (cDNA from HeLa mRNA)) (UniProt P67775); assay: as above; remark: listed apart in the source
[4] = biological target: S24E-PP2Ac (phosphomimetic mutant of HA-PP2Ac) (human (cDNA from HeLa mRNA)) (UniProt P67775); assay: proximity ligation; Duolink PLA on fixed, permeabilised αT3-1 or PC3 cells transfected with HA-PP2Ac or its mutants; anti-HA together with Ab to the partner; cells untreated or stimulated with TPA (250 nM)
[5] = biological target: S24A-PP2Ac (unphosphorylatable mutant of HA-PP2Ac) (human (cDNA from HeLa mRNA)) (UniProt P67775); assay: as above
[6] = biological target: HA-PP2Ac (wild type catalytic subunit of protein phosphatase 2A) (human (cDNA from HeLa mRNA)) (UniProt P67775); assay: as above; remark: listed apart in the source

Molecule	binding [1]	binding [2]	binding [3]	binding [4]	binding [5]	binding [6]
PKCα, endogenous in αT3-1 cells (from UniProt P20444 1-672) (enzyme)	binds	binds				
PKCα, endogenous in PC3 cells (from UniProt P17252 1-672) (enzyme)	binds	binds				
B1			binds	binds	binds	binds
B2				binds	binds	
